# PubChem BioAssay AID1259424 – University of Nebraska Medical Center, 2018
# Assay: 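Seek colon cancer survival genes behaving like KSR1, using a six-gene signature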 (primary screen)
# System: human HCT116 colon cancer cells
# Reagents: siRNA pool against human genes, 50 nM
# Measurement: 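Log2 levels of six mRNAs (branched-DNA multiplex), adjusted by two reference genes and the non-targeting median, then scored against the average KSR1 knockdown pattern as Pearson r and euclidean distance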
# Direction: mean correlation with KSR1 profile and KSR1 correlation: higher = expression change more like KSR1 knockdown; mean distance from KSR1 profile: higher = expression change less like KSR1 knockdown
# The whole screen tested about 14,000 reagents; shown is a random part of them. 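Higher correlation or smaller distance means closer resemblance to KSR1 loss; control wells, including KSR1 knockdowns, recur on many plates.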 Not all columns of the deposit are shown. The record does not give: the time to read-out.
gene,mean correlation with KSR1 profile,mean distance from KSR1 profile,"KSR1 correlation, replicate 1"
HOXB5 (homeobox B5),0.212,7.95,0.462
MYBPH (myosin binding protein H),-0.266,2.11,-0.0387
SLC15A3,-0.137,1.78,-0.349
SBF2 (SET binding factor 2),0.548,1.34,0.229
CRELD2 (CRELD disulfide isomerase 2),0.148,1.96,0.18
LPAR1 (lysophosphatidic acid receptor 1),0.93,1.18,0.945
BFSP2 (beaded filament structural protein 2),-0.0303,1.54,-0.0658
OIP5 (Opa interacting protein 5),0.0617,2.83,0.207
EIF2AK4 (eukaryotic translation initiation factor 2 alpha kinase 4),0.158,2.34,0.259
TBC1D12 (TBC1 domain family member 12),-0.275,3.15,-0.214
SH3BP5L (SH3 binding domain protein 5 like),-0.0761,3.81,-0.255

Targets above whose target name begins with S or s:
gene,mean correlation with KSR1 profile,mean distance from KSR1 profile,"KSR1 correlation, replicate 1"
SLC15A3,-0.137,1.78,-0.349
SBF2 (SET binding factor 2),0.548,1.34,0.229
SH3BP5L (SH3 binding domain protein 5 like),-0.0761,3.81,-0.255

The results go on:
gene,mean correlation with KSR1 profile,mean distance from KSR1 profile,"KSR1 correlation, replicate 1"
GLP1R (glucagon like peptide 1 receptor),0.727,1.06,0.789
FIGNL1 (fidgetin like 1),-0.192,2.02,-0.249
TGFBR3 (transforming growth factor beta receptor 3),0.0594,2.65,-0.364
PLAC8 (placenta associated 8),0.0272,2.43,-0.065
"PRAG1 (PEAK1 related, kinase-activating pseudokinase 1)",-0.403,2.59,-0.142
ADAMTS13 (ADAM metallopeptidase with thrombospondin type 1 motif 13),-0.3,1.19,-0.299
PIGP (phosphatidylinositol glycan anchor biosynthesis class P),-0.451,2.04,-0.408
LTC4S (leukotriene C4 synthase),0.305,2.4,0.508
FFAR4 (free fatty acid receptor 4),0.193,1.66,-0.0854
